Data taken from article PMC4525385.

Amino acid sequences for entries named in this document (tags omitted). A change or cut given only in a name is not applied to a line headed by its entry. Residues count along the entry.
UniProt P0ADE4: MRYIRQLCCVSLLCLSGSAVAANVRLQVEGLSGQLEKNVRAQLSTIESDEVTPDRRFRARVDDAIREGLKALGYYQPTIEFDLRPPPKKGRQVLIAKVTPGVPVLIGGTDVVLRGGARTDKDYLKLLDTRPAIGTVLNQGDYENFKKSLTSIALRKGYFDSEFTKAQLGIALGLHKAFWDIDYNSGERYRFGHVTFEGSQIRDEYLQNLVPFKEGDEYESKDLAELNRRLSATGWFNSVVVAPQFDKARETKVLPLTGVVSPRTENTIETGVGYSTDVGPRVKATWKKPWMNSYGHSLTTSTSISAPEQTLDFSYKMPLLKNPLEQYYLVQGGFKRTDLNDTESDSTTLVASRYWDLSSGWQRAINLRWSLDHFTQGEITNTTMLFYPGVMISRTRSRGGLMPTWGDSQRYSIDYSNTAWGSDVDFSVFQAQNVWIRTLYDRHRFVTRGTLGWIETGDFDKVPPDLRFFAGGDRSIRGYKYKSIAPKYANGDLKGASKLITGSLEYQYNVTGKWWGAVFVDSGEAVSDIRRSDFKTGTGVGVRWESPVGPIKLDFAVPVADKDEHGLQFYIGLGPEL
UniProt P39180, residues 53-1039: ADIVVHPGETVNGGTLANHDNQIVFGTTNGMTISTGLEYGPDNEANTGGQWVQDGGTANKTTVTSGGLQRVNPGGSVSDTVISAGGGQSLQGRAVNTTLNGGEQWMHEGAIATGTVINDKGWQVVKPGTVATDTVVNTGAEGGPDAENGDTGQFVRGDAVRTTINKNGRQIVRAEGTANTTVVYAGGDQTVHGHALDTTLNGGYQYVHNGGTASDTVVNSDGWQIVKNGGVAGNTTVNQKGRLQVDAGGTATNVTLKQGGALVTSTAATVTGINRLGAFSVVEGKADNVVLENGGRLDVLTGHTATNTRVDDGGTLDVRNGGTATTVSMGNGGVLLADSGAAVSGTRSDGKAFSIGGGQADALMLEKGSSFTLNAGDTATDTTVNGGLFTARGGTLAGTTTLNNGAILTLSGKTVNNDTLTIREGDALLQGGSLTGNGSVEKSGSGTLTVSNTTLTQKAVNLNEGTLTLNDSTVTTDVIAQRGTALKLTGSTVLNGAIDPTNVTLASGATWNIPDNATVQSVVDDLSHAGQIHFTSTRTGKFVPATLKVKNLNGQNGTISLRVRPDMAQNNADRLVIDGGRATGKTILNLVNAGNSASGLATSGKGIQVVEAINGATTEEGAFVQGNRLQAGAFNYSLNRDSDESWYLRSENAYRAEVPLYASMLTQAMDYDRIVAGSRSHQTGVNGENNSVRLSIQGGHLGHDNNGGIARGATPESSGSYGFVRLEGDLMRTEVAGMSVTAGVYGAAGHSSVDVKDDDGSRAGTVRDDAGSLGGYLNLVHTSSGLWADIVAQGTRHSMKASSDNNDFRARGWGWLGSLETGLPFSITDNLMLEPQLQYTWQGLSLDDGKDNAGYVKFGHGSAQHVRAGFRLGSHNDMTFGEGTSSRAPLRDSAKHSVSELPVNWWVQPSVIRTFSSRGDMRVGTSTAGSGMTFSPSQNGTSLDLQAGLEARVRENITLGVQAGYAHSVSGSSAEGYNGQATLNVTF

What was measured:
Assay in all cases: QCM-D; histidine-tagged TamA or deletion form attached to a Ni-ANTA gold surface, POPC membrane layer reconstituted around it; then 0.5 mL of 0.2 mg/ml TamB (step 3) and 0.5 mL of 0.2 mg/ml urea-denatured Ag43 (step 4) added one after the other, washes with 20 mM TRIS, 150 mM NaCl; 25 °C; both purified
[1] = biological target: TamA(ΔPOTRA1), histidine-tagged (pBADTamA-C-term-6xHisΔP1) (E. coli) (UniProt P0ADE4)
[2] = biological target: TamA(ΔPOTRA1–2), histidine-tagged (pBADTamA-C-term-6xHisΔP1–2) (E. coli) (UniProt P0ADE4)
[3] = biological target: TamA(ΔPOTRA1–3) (E. coli) (UniProt P0ADE4)

binding [1]: binds
binding [2]: no binding (tested: 0.2 mg/ml)
binding [3]: no binding (tested: 0.2 mg/ml)
Substance: Ag43, urea-denatured (from UniProt P39180 53-1039)

These are yes or no findings as the source states them, for the method shown. For part of these data: Binding calls can cover weak binding; strength is not graded here.
